Laboratory results from paper PMC6276190.
Results are given in words; binding and its absence hold for the method and conditions named. Binding seen in cells or lysates may run through a third protein. Some binding calls cover weakened binding; strength is not graded here.

By UniProt entry, the sequences of proteins in these tests, tags left out.
UniProt Q9ULQ0: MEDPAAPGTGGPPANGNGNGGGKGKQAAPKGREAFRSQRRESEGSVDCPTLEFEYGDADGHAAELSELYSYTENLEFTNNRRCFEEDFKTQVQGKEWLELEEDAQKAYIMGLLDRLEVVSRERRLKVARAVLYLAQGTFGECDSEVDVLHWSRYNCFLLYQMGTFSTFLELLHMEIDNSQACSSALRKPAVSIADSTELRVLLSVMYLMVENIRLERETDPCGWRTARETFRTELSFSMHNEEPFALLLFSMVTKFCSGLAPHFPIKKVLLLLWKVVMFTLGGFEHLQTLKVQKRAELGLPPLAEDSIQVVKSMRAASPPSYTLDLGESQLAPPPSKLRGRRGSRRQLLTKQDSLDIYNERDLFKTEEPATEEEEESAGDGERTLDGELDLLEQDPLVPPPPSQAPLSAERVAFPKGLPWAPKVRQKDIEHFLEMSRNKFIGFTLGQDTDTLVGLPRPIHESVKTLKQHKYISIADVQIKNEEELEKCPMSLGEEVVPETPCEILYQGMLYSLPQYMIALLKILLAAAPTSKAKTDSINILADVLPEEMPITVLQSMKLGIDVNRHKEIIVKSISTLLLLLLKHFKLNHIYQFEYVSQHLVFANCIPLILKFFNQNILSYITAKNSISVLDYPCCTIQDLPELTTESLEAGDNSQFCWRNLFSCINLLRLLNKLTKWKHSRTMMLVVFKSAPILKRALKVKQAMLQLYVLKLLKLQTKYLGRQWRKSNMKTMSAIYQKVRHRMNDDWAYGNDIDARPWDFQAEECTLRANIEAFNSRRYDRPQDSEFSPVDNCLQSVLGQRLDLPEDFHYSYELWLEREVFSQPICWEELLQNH
UniProt Q5VSL9: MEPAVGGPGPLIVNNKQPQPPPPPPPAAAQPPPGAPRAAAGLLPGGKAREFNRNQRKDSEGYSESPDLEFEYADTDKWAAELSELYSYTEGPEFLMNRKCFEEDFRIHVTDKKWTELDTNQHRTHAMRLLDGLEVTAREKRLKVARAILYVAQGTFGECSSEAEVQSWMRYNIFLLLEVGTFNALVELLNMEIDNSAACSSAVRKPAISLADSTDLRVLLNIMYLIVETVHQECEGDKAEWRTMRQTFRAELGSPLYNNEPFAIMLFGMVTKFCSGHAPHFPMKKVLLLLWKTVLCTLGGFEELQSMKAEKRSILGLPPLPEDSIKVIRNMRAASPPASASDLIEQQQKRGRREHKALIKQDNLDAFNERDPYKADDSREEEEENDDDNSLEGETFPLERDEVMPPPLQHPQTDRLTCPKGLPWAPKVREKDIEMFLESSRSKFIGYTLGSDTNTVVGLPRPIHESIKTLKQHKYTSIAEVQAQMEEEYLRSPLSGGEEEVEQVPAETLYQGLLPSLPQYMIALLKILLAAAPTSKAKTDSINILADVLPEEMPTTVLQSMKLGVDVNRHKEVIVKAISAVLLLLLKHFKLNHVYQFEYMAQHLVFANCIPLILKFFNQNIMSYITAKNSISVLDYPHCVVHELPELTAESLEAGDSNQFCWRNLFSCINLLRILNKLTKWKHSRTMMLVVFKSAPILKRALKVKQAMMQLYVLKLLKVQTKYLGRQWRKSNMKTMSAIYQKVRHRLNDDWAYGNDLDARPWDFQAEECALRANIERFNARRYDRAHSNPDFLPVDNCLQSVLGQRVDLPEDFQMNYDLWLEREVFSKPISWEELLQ
UniProt Q9BUL8: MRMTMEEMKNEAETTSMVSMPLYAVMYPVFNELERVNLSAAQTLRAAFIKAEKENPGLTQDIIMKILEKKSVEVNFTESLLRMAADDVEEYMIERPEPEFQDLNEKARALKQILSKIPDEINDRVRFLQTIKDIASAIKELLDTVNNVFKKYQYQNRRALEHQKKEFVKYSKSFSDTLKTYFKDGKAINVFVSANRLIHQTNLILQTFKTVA

Tests used:
HA-FAM40B (human) = HA-FAM40B (human) (UniProt Q9ULQ0); assay: co-IP; COS7 cells co-transfected with pHA-FAM40A or pHA-FAM40B and pmyc-CCM3, lysed after 48 h; lysates pre-cleared with non-immune IgG agarose, incubated with mouse anti-HA agarose beads 3 h at 4 °C; washed with IP lysis buffer containing 250 mM NaCl; immunoblot with anti-myc; empty vector (pDESTHA) as control
HA-FAM40A (human) = HA-FAM40A (human) (UniProt Q5VSL9); assay: as above

binding (HA-FAM40B (human)): binds | binding (HA-FAM40A (human)): binds
Substance: myc-CCM3 (from UniProt Q9BUL8 1-212)
